Experimental data published in publication PMC7672472 (2020).

Test system: MA-46 (MA) (DNA, aptamer) CTTACGACTCAGGCATTTTGCCGGGTAACGAAGTTACTGTCGTAAG
Assay: ITC
Conditions: 20 mM Na+, 5 mM Mg2+; 10 mM Tris-HCl pH 7.4, 23 °C; one-site model

Compound `CN(C)CCOC(c1ccccc1)c1ccccc1` has a Kd of 195 ± 5 µM.
